Some entries share one result that the patent states for a list of compounds. Square brackets hold non-standard residues; d marks the D form. Peptide text beside a SMILES is read from it. * marks the point of attachment. ξ: configuration not given here. ξLys(5ξ-SSMe) = CSSC(CN)CCC(N)C(=O)O; X1 = O=[N+]([O-])c1ccccc1C*
test: Solubility of the thiolysine-modified peptides in the ligation buffer; format: physicochemical; conditions: Tris-HCl pH 7.5 buffer used during the ligation reaction
Text: This is not surprising as this peptide is made up for ≈50% of hydrophobic amino acids and contains 3 beta-strands in the native PCNA protein (see Supporting Information). Besides performing the ubiquitin ligations with an excess of peptide (rxn 1-3 and 6-16, FIGS. 6 and 7), it was also observed that the use of (roughly) equimolar amounts of ubiquitin and peptide (rxn 4, 5 FIG. 6 and FIGS. 8-10) allowed ligation. In order to be able to develop the here presented ligation methodology for solid phase peptide synthesis, with the peptide being anchored to the solid support, it is important to fully consume all peptide. In order to confirm that a polar organic solvent is compatible with the reaction conditions, we repeated the ubiquitin ligation of the H2B peptide TKAVTK*YTSSK, using a DMSO stock of the peptide, up to a final concentration of 10% DMSO (rxn 14-16, FIG. 7).

solubility, soluble:
TSEK*VENGSLC*DQEIDSIC*SIERA [Peptide 4]
CC[C@H](C)[C@H](NC(=O)[C@H](C)NC(=O)[C@@H](NC(=O)[C@@H](N)CCSC)[C@@H](C)O)C(=O)N[C@H](C(=O)N[C@@H](CCCCN)C(=O)N[C@@H](CCC(=O)O)C(=O)N[C@H](C(=O)N[C@H](C(=O)N[C@@H](CO)C(=O)N[C@@H](CCCNC(=N)N)C(=O)N[C@@H](CC(N)=O)C(=O)NC(CCC(CN)SSC)C(=O)N[C@@H](CCCNC(=N)N)C(=O)N[C@@H](CCCNC(=N)N)C(=O)N[C@@H](Cc1ccc(O)cc1)C(=O)N[C@@H](CCC(N)=O)C(=O)N[C@@H](CCC(=O)O)C(=O)N[C@@H](CC(=O)O)C(=O)O)C(C)C)[C@@H](C)CC)[C@@H](C)CC (stereo partly drawn) [Peptide 3, MTAIIKEIVSRNK*RRYQED] (H-MTAIIKEIVSRN[ξLys(5ξ-SSMe)]RRYQED-OH; N-terminus assumed)
CSSC(CN)CCC(NC(=O)[C@H](C)NC(=O)[C@H](CSCc1ccccc1[N+](=O)[O-])NC(=O)[C@@H](N)CO)C(=O)N[C@@H](CC(=O)O)C(=O)NCC(=O)N[C@H](C(=O)N[C@@H](CCCCN)C(=O)O)C(C)C (stereo partly drawn) [Peptide 2, SC*AK*DGVK] (H-SC(X1)A[ξLys(5ξ-SSMe)]DGVK-OH; N-terminus assumed)

— US8729009B2, “Lysine compounds and their use in site- and chemoselective modification of peptides and proteins” (Stichting Het Nederlands Kanker Instituut, priority 2009, dated 2014)
